Experimental data: PubChem BioAssay AID540303 (National Center for Advancing Translational Sciences (NCATS), 2011)
In all, about 330,000 compounds went through this assay and about 1,000 (0.3%) were called active. The inconclusive results got no clear call from the source; some entries with a clear call stand among them for comparison. Calls come from the whole dose curve; as a rule, active = well fitted inhibition curve with a large enough effect; inconclusive = small, poorly fitted or top-dose-only effect; inactive = no such curve, though single readings can be large or run the other way; tested in mouse RAW 264.7 cells. A potency beside an inconclusive call is a rough fit, not a confirmed value.

Assay: qHTS for Inhibitors of Cell Surface uPA Generation; note: nearly all actives have a fitted effect of over 55% in size
Details: cell surface uPA generation assay; series mostly up to 38.3 µM; activity change, negative = inhibition: at the top concentration
Outline: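 RAW 264.7, 4000 cells/well, o/n 37 C; cpd 1:5 dilution, up to 38.3 uM final; 24 h 37 C/5% CO2 with reagent; ATP-Lite lum. High ATP = LF entry blocked.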
% is set by controls: 0 for no effect and ±100 for the full control effect; potency is the fitted concentration of half-maximal effect.

**Q.** Which Potency does the source give for `O=C(NCCCN1CCOCC1)c1ccc2c(c1)N(Cc1c(F)cccc1Cl)C(=O)c1ccccc1S2` here?
**A.** Its Potency is active: 4.47 µM.

**Q.** For `COc1cccc(C(=O)Nc2cc(NC(=O)c3cccs3)ccc2C)c1OC`, which Potency is on record?
**A.** The Potency was inconclusive: 7.94 µM [inhibitor, partial curve, poor fit].

**Q.** With `Cc1cc(NC(=O)c2cc(-c3ccc(O)cc3)on2)no1` as the compound, how does the Potency read?
**A.** Its Potency is inconclusive: 11.2 µM [inhibitor, partial curve, poor fit].

**Q.** For `CC(C)(C)NC(=O)[C@@H]1C[C@@H]2CCCC[C@@H]2CN1C[C@@H](O)[C@H](Cc1ccccc1)NC(=O)[C@H](CC(N)=O)NC(=O)c1ccc2ccccc2n1`, which Potency is on record?
**A.** The Potency was inconclusive: 10 µM [inhibitor, partial curve, poor fit].

**Q.** Which Potency does the source give for `Cc1ccc2nc3c(cc2c1)c(C)nn3-c1ccccc1` here?
**A.** The Potency was inconclusive: 3.16 µM [inhibitor, partial curve, poor fit].

**Q.** Which Potency does the source give for `Cc1csc2nc(CNS(=O)(=O)c3ccc(-c4ccccc4)cc3)cn12` here?
**A.** Its Potency is inconclusive: 12.6 µM [inhibitor, single point].

**Q.** Which “activity change, negative = inhibition” value does the source give for `Cc1cc(Br)ccc1SCC(=O)NCC(c1ccco1)N1CCCCC1` (stereo not given) here?
**A.** The value was inactive: -0.364%.

**Q.** With `COc1ccc(C(=O)NCC(=O)N/N=C/c2ccc([N+](=O)[O-])s2)cc1OC` as the compound, how does the Potency read?
**A.** Its Potency is inconclusive: 15.8 µM [inhibitor, partial curve, poor fit].

**Q.** With `COc1cc(/C=C/c2ccc3cccc([N+](=O)[O-])c3n2)ccc1OCC(=O)O` as the compound, how does the Potency read?
**A.** The Potency was inconclusive: 10 µM [inhibitor, partial curve].

**Q.** Which Potency does the source give for `CCOC(=O)c1ccc(NS(=O)(=O)c2cn(C)cn2)cc1` here?
**A.** Its Potency is inconclusive: 8.91 µM [inhibitor, partial curve, poor fit].

**Q.** Which Potency does the source give for `COc1ccc(NC(=O)CN(C)C(=O)c2ccc(COc3ccccc3)cc2)cc1` here?
**A.** The Potency was inconclusive: 11.2 µM [inhibitor, partial curve, poor fit].

**Q.** With `COc1ccc(-c2ccc(SCc3ccccn3)nn2)cc1OC` as the compound, how does the Potency read?
**A.** Its Potency is inconclusive: 2.82 µM [inhibitor, partial curve, poor fit].

**Q.** Which Potency does the source give for `O=C(Nc1ccccn1)c1ccc2c(=O)n3c(nc2c1)CCCCC3` here?
**A.** The Potency was inconclusive: 12.6 µM [inhibitor, single point].

**Q.** With `CCOc1ccccc1NC(=O)c1nc(S(=O)(=O)Cc2cccc(C)c2)ncc1Cl` as the compound, how does the Potency read?
**A.** The Potency was inconclusive: 1.41 µM [inhibitor, partial curve, poor fit].

**Q.** With `CCOC(=O)c1[nH]cnc1C(=O)Nc1ccc(Cl)cc1` as the compound, how does the “activity change, negative = inhibition” value read?
**A.** The value was inactive: -1.04%.

**Q.** For `CCN(Cc1ccncc1)S(=O)(=O)c1ccc(C(C)=O)cc1`, which “activity change, negative = inhibition” value is on record?
**A.** Its value is inactive: -3.94%.

**Q.** Which Potency does the source give for `CCN1CCN(c2cc(C)c3cc(NC(=O)c4cccc(OC)c4)ccc3n2)CC1` here?
**A.** The Potency was inconclusive: 28.2 µM [inhibitor, single point].

**Q.** For `CC(O)CNCCNCc1c(OCc2ccccc2)ccc2ccccc12` (stereo not given), which Potency is on record?
**A.** Its Potency is inconclusive: 10 µM [inhibitor, single point].

**Q.** Which “activity change, negative = inhibition” value does the source give for `Cc1ccc(NC(=O)CCn2c(=S)oc3ccccc32)cc1` here?
**A.** Its value is inactive: 1.42%.

**Q.** For `Oc1c(N=NC(=S)Nc2ccccc2F)c2ccccc2n1Cc1ccc(Cl)cc1`, which Potency is on record?
**A.** The Potency was inconclusive: 5.01 µM [inhibitor, single point].

**Q.** Which “activity change, negative = inhibition” value does the source give for `Cc1oc2cc(OC(C)C(=O)O)ccc2c(=O)c1Oc1ccccc1` (stereo not given) here?
**A.** The value was inactive: -2.04%.

**Q.** With `COc1ccc(-c2cc(C)no2)cc1S(=O)(=O)N1CCN(c2cccc(C)c2)C(C)C1` (stereo not given) as the compound, how does the Potency read?
**A.** The Potency was inconclusive: 11.2 µM [inhibitor, single point].

**Q.** For `Cc1ccccc1Nc1ncnc2c1cnn2-c1ccccc1`, which Potency is on record?
**A.** The Potency was inconclusive: 22.4 µM [inhibitor, single point].

**Q.** For `CS(=O)c1nc(-c2ccc(Br)cc2)cc(-c2ccccc2)c1C#N` (stereo not given), which Potency is on record?
**A.** Its Potency is inconclusive: 2.51 µM [inhibitor, partial curve, poor fit].

**Q.** For `O=C1Nc2ccccc2/C1=N/N=C/c1ccc(-c2ccc([N+](=O)[O-])cc2)o1`, which Potency is on record?
**A.** Its Potency is inconclusive: 3.16 µM [inhibitor, full curve, poor fit].

**Q.** For `O=C1CSc2ccc(C(=O)Nc3cccc(S(=O)(=O)Nc4ccc(Br)cc4)c3)cc2N1`, which Potency is on record?
**A.** The Potency was inconclusive: 31.6 µM [inhibitor, partial curve, poor fit].

**Q.** For `COc1cc(C)c(C)cc1S(=O)(=O)N1CCCc2ccccc21`, which Potency is on record?
**A.** Its Potency is inconclusive: 14.1 µM [inhibitor, partial curve, poor fit].

**Q.** Which “activity change, negative = inhibition” value does the source give for `COc1ccc(C(=O)c2ccc(OC)c(OC)c2OC)cc1` here?
**A.** Its value is inactive: -9.16%.

**Q.** With `CCCCN(CCCNC(=O)CN1C(=O)COc2ccc(S(=O)(=O)N3CCC(C)CC3)cc21)Cc1ccccc1` as the compound, how does the Potency read?
**A.** The Potency was inconclusive: 1 µM [inhibitor, partial curve, poor fit].

**Q.** For `CCOC(=O)c1c(C)[nH]c2c1-c1ccccc1C(=O)C2=O`, which Potency is on record?
**A.** Its Potency is active: 5.62 µM.

**Q.** With `CC(=O)c1cccc(OCc2cc(C(=O)N(C)Cc3ccc(C)o3)no2)c1` as the compound, how does the Potency read?
**A.** Its Potency is inconclusive: 10 µM [inhibitor, partial curve, poor fit].

**Q.** For `COc1cccc(/C=N/NC(=S)Nc2cccc(C(=O)O)c2)c1O`, which Potency is on record?
**A.** Its Potency is inconclusive: 2.82 µM [inhibitor, full curve, poor fit].

**Q.** With `Cc1ccc2cc3c(NC(=O)c4ccco4)nn(CC(C)C)c3nc2c1` as the compound, how does the “activity change, negative = inhibition” value read?
**A.** Its value is inactive: 1.68%.

**Q.** With `CN1CCN(C(=O)c2ccc3c(Cl)c4c(nc3c2)CCCC4)CC1` as the compound, how does the Potency read?
**A.** The Potency was inconclusive: 10 µM [inhibitor, single point].

**Q.** With `COc1ccc(N(C(=O)c2ccco2)C(C(=O)NC2CCCCC2)c2cccs2)cc1OC` (stereo not given) as the compound, how does the “activity change, negative = inhibition” value read?
**A.** Its value is inactive: 5.58%.

**Q.** With `COc1ccc(-c2cc(C(=O)N3CCCC3)c3ccccc3n2)cc1` as the compound, how does the Potency read?
**A.** The Potency was inconclusive: 8.91 µM [inhibitor, partial curve].

**Q.** For `Cc1cc(C)c2c(c1)C1C=CCC1C(c1ccc(S(=O)(=O)N3CCOCC3)cc1)N2` (stereo not given), which “activity change, negative = inhibition” value is on record?
**A.** Its value is inactive: -6.52%.

**Q.** With `CC(C)=CCC/C(C)=C/CNC(=O)C[C@H]1C[C@H](C(=O)N2CCOCC2)[C@@]2(C)c3[nH]c4cc(-c5ccco5)ccc4c3CCN2C1=O` as the compound, how does the Potency read?
**A.** Its Potency is inconclusive: 28.2 µM [inhibitor, single point].

**Q.** With `CCc1nnc(N/N=C/c2cccs2)n1N` as the compound, how does the “activity change, negative = inhibition” value read?
**A.** The value was inactive: -12.3%.

**Q.** Which Potency does the source give for `CN(C(=O)c1ccc(NC(=O)Cc2cccc(NC(=O)C3CCN(C(=O)C4CCCCC4)CC3)c2)cc1)C1CC1` here?
**A.** Its Potency is inconclusive: 11.2 µM [inhibitor, single point].
